Data as given in PubChem BioAssay AID504786 (Drosophila RNAi Screening Center, 2011)
The deposit covers about 21,000 reagents; this is a random part of those with a known target gene and a result. 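Primary screen; positive scores mean lost reporter signal, so the sign may be inverted from the usual convention.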 A plus sign joins genes that one reagent is predicted to hit. Not all columns of the deposit are shown. Reagent sequences are not shown.

Screen: 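Positive regulators of HIF-driven reporter output in Drosophila cells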 (primary screen)
System: Drosophila S2 cells with a stable HIF luciferase reporter
Reagents: long dsRNA against Drosophila genes, about 0.2 µg dsRNA per well of a 384-well plate
Duration: three days of knock-down, then 20 h of DFO before reading
Treatment: desferrioxamine (DFO) at 100 µM, an iron chelator that mimics hypoxia, for 20 h
Measurement: 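HIF reporter luminescence in cells given 100 µM DFO for 20 h, using the mouse ldh-a hypoxia-response element, scored as per-plate z-scores; higher means greater loss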
Scale: z-score: higher = stronger loss of HIF reporter signal

no.	Target gene	DRSC id	z-score, replicate 1	z-score, replicate 2	z-score, replicate 3
1	CG32225	DRSC09657	-0.2	0.3	
2	Ack-like	DRSC07500	-0.2	-0.2	
3	CG42809 + CG42810	DRSC02532	-0.3	-0.6	
4	CG42809 + CG42810	DRSC02533	-0.1	-0.3	
5	CG7903	DRSC16338	-0.1	-0.6	
6	RasGAP1	DRSC11172	-0.5	-1.3	
7	Obp58b	DRSC04161	-0.4	-0.3	
8	5PtaseI	DRSC16269	-0.2	0.1	
9	CG8774	DRSC16445	0.1	0.3	
10	CG7335	DRSC10816	-0.2	-0.1	
11	CG33140	DRSC06030	-0.3	-0.7	
12	TwdlJ	DRSC15812	0	0.4	
13	garz	DRSC07193	-0.7	-0.9	
14	dl	DRSC03520	-0.3	-0.4	
15	dl	DRSC03521	-0.2	0.2	
16	Spf45	DRSC03826	0.3	0.4	
17	jv	DRSC08831	-0.4	-0.2	
18	jv	DRSC08832	-0.3	-0.3	
19	CG30026	DRSC05276	-0.2	-0.2	
20	CG43707	DRSC00280	-0.4	-0.7	
21	stw	DRSC04842	-0.1	-0.3	
22	stw	DRSC04843	-0.1	-0.4	
23	Nplp3	DRSC09944	-0.1	-0.5	
24	mod	DRSC16999	-0.3	-0.4	
25	Top2	DRSC03459	-0.1	-0.2	
26	CG10859	DRSC02110	-0.3	-0.5	
27	CG13144	DRSC02241	-0.3	-0.3	
28	Abl	DRSC09661	-0.5	-1	
29	Kaz	DRSC14637	0	-0.4	
30	DIP-eta	DRSC02342	-0.5	-0.5	
31	Chchd2	DRSC19931	-0.3	0	
32	DIP-theta	DRSC00885	-0.3	0.2	-0.1
33	DIP-theta	DRSC02340	-0.4	-0.8	
34	DIP-theta	DRSC02341	1.1	0.5	
35	PH4alphaMP	DRSC17031	-0.3	-0.3	
36	Rbp	DRSC15724	1.2	1.5	
37	Rbp	DRSC15726	0	-0.3	
38	CG14926	DRSC02409	-0.3	-0.5	
39	CG12581	DRSC12206	-0.3	-0.6	
40	CG12581	DRSC12207	-0.3	-0.5	
41	Nup43	DRSC16279	-0.6	0.1	
42	CG13465	DRSC10011	-0.3	-0.2	
43	Wnk	DRSC11813	1.8	1.9	
44	CG18404	DRSC15323	-0.5	-0.6	
45	AGBE	DRSC06861	0.9	0.8	
46	CG5850	DRSC02905	-0.4	-0.6	
47	CG42241 (retired record)	DRSC04007	-0.3	-0.3	
48	fz3	DRSC18779	-0.3	-0.2	
49	CG8155	DRSC07084	-0.3	-0.2	
50	CG18343	DRSC06726	-0.1	0	
51	Cyt-c-p	DRSC03310	-0.2	0.1	
52	CG4218	DRSC01939	2.9	-0.4	
53	Mccc2	DRSC04987	-0.2	-0.2	
54	ppk27	DRSC08168	-0.4	-0.5	
55	PIG-S	DRSC14643	-0.2	-0.1	
56	PIG-S	DRSC15388	-0.4	-0.9	
57	PIG-S	DRSC15952	-0.2	0.2	
58	Hydr1	DRSC07063	-0.3	-0.2	
59	Prx4	DRSC08668	-0.2	-0.4	
60	Eig71Eg	DRSC11154	-0.2	-0.5	
61	CG14642	DRSC12228	-0.3	-0.4	
62	GMF	DRSC01928	-0.3	-0.5	
63	Cdep	DRSC12028	-0.3	-0.4	
64	Cdep	DRSC12220	-0.4	-0.4	
65	Cdep	DRSC12291	-0.2	0.1	
66	eIF4A	DRSC03526	8.6	5	
67	mRpL28	DRSC02724	1.5	1.3	
68	nwk	DRSC10442	-0.2	-0.2	
69	GXIVsPLA2	DRSC10243	-0.4	-0.5	
70	CG12507	DRSC19463	-0.1	0.7	
71	Ldh	DRSC11198	-0.3	-0.8	
72	AstA	DRSC14634	-0.5	-0.7	
73	CG32511 (retired record)	DRSC20697	-0.4	-0.2	
74	DUBAI	DRSC07281	-0.3	-0.5	
75	eEF1beta	DRSC07419	-0.3	-0.4	
76	CG5510	DRSC15823	-0.2	-0.2	
77	CG4570	DRSC15602	4.1	2.4	
78	Gr47b	DRSC05275	-0.2	-0.1	
79	CG13747	DRSC06418	-0.3	-0.3	
80	drm	DRSC00277	-0.3	-0.3	
81	Mtpbeta	DRSC04663	-0.3	-0.2	
82	CG7768	DRSC10914	-0.3	-0.5	
83	Nurf-38	DRSC04629	-0.3	0.1	
84	CG8460	DRSC03090	-0.3	-0.6	
85	CG7514	DRSC08597	-0.3	-0.7	
86	CG3149	DRSC17732	-0.3	-0.5	
87	CG17108	DRSC02576	-0.4	-0.5	
88	Aldh	DRSC02717	-0.2	-0.4	
89	comr	DRSC04138	-0.2	-0.5	
90	CG31550	DRSC12197	-0.2	-0.1	
91	CG31550	DRSC12198	-0.3	-0.4	
92	CR11700 (retired record)	DRSC17794	3.7	3.9	
93	Nct	DRSC16172	-0.3	-0.5	
94	bai	DRSC14388	-0.4	-0.4	
95	Tsp74F	DRSC10508	-0.3	-0.3	
96	sktl	DRSC04715	-0.4	-0.7	
97	Noc2	DRSC03165	-0.1	0.9	
98	ref(2)P	DRSC03601	-0.2	-0.1	
99	CG31200	DRSC15285	0.3	-0.1	
100	Lcp65Ac	DRSC11210	-0.3	-0.2	
101	Trf	DRSC03462	-0.3	-0.4	
102	CG15167	DRSC02468	-0.2	-0.3	
103	CG33268	DRSC10143	-0.1	0	
104	Antdh	DRSC20307	-0.2	-0.5	
105	l(2)gd1	DRSC02773	-0.4	-0.6	
106	CG9776	DRSC12127	-0.4	-0.8	

8 entries from above, set out differently:
{"Target gene": "Abl", "DRSC id": "DRSC09661", "z-score, replicate 1": -0.5, "z-score, replicate 2": -1}
{"Target gene": "Kaz", "DRSC id": "DRSC14637", "z-score, replicate 1": 0, "z-score, replicate 2": -0.4}
{"Target gene": "DIP-eta", "DRSC id": "DRSC02342", "z-score, replicate 1": -0.5, "z-score, replicate 2": -0.5}
{"Target gene": "Chchd2", "DRSC id": "DRSC19931", "z-score, replicate 1": -0.3, "z-score, replicate 2": 0}
{"Target gene": "DIP-theta", "DRSC id": "DRSC00885", "z-score, replicate 1": -0.3, "z-score, replicate 2": 0.2, "z-score, replicate 3": -0.1}
{"Target gene": "DIP-theta", "DRSC id": "DRSC02340", "z-score, replicate 1": -0.4, "z-score, replicate 2": -0.8}
{"Target gene": "DIP-theta", "DRSC id": "DRSC02341", "z-score, replicate 1": 1.1, "z-score, replicate 2": 0.5}
{"Target gene": "PH4alphaMP", "DRSC id": "DRSC17031", "z-score, replicate 1": -0.3, "z-score, replicate 2": -0.3}
